Results as given in paper PMC10740258.
No constants are given. Whether binding was seen depends on the method and setting. Binding seen in cells or lysates may run through a third protein. A yes stands for co-enrichment or nearness to the bait. Other partners may have been found. Where a sequence is shown, tags or fusion partners need not be part of it.

Sequences of proteins named here, by UniProt entry; tags and fusion partners are left off.
UniProt Q8K4Q0: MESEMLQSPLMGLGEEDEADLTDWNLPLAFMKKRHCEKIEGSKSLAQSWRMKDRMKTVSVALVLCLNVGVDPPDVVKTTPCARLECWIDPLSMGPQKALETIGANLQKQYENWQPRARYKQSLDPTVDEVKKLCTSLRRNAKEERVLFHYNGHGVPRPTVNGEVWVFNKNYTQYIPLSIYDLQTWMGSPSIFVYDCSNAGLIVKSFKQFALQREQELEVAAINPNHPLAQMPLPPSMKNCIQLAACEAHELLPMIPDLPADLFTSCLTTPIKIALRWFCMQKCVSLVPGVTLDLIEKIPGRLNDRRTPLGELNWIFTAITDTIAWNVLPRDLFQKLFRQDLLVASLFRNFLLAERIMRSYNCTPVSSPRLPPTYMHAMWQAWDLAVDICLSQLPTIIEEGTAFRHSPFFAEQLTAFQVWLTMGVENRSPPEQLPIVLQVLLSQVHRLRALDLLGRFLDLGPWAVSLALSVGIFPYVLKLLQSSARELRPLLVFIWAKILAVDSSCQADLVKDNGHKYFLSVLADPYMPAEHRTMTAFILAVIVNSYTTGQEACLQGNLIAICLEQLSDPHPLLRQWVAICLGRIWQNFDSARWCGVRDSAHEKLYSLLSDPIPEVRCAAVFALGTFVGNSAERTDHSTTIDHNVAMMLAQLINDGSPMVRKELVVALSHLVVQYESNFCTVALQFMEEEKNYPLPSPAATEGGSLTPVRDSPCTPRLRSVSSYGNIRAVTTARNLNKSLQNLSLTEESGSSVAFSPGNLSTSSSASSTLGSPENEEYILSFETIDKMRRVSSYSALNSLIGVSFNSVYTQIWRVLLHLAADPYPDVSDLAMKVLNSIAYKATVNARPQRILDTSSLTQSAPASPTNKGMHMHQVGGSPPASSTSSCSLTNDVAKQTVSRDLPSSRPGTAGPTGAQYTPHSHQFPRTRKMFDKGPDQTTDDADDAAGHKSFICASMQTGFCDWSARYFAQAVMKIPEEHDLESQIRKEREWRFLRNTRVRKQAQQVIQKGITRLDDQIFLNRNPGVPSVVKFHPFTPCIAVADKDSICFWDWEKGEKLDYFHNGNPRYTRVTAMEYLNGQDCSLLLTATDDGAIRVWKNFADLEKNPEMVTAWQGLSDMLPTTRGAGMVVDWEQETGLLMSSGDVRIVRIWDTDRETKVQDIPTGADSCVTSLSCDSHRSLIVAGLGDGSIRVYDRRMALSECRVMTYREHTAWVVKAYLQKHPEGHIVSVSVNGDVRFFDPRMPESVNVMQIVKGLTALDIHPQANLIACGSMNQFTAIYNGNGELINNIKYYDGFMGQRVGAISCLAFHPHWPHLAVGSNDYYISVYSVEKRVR
UniProt Q6QI06: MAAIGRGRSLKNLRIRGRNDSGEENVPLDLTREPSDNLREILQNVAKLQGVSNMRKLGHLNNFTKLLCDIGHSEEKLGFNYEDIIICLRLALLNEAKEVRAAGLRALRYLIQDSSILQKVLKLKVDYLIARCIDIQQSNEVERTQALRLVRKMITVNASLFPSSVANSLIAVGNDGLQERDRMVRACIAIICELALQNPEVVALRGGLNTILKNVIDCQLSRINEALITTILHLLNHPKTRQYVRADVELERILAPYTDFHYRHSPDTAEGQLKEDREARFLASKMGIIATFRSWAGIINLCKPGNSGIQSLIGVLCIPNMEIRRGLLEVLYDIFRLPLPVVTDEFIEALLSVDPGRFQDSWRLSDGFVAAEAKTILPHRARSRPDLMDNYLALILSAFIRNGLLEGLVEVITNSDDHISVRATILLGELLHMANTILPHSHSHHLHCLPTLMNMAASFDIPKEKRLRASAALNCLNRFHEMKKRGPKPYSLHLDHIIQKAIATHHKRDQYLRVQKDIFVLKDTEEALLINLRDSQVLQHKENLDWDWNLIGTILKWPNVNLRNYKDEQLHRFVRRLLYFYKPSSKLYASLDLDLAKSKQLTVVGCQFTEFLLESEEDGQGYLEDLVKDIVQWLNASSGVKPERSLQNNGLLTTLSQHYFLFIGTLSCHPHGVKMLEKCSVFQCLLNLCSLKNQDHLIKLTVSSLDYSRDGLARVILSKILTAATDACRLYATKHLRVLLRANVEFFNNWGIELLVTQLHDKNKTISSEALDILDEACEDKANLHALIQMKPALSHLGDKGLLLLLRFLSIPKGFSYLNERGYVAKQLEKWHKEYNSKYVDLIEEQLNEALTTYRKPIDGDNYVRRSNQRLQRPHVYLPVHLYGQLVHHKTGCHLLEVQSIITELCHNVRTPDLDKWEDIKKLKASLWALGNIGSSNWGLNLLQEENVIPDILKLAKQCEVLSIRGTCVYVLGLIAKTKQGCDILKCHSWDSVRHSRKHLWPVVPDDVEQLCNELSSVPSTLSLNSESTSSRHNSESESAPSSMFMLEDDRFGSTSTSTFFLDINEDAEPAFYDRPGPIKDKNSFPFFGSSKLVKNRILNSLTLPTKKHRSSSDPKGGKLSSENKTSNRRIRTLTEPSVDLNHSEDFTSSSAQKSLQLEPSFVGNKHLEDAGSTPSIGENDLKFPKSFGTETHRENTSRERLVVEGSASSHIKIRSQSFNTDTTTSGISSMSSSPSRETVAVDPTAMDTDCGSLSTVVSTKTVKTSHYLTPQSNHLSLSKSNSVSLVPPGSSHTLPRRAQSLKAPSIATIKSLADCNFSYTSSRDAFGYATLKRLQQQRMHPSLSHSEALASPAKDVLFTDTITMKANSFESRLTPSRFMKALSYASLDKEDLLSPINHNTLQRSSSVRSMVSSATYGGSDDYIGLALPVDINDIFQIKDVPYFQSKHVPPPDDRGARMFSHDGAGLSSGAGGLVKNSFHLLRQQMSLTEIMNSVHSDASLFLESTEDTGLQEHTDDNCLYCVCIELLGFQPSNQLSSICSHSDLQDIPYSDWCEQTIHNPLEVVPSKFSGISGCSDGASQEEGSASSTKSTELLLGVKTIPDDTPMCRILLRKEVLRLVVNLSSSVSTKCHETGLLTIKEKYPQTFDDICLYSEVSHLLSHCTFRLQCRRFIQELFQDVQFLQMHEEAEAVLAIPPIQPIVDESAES

Biological target: T1, FLAG-Tagged murine NUAK1 WT (mouse) (UniProt Q641K5)
T1 sequence: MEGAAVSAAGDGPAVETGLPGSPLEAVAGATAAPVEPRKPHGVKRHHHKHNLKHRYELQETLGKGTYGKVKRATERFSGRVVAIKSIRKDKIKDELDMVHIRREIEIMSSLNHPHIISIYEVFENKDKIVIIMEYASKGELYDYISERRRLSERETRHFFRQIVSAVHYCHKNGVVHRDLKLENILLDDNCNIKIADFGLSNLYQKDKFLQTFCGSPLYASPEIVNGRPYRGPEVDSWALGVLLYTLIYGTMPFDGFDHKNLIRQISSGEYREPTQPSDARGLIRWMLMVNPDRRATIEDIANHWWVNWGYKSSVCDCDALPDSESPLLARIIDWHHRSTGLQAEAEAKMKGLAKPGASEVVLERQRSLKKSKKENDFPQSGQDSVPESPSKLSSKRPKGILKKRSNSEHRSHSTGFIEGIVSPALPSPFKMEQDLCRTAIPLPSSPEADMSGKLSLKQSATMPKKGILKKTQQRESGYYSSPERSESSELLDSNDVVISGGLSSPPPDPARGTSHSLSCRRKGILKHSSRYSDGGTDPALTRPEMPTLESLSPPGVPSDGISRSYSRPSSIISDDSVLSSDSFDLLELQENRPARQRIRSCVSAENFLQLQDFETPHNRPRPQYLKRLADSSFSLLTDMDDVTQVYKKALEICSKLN
Assay: affinity purification with mass spectrometry; FLAG immunoprecipitation from nuclear and cytoplasmic extracts of iMEFs expressing FLAG-mNUAK1 WT or KR44/71AA (pBABE FLAG as control); MudPIT; n = 3

Substance	binding
Raptor (endogenous, iMEFs) (from UniProt Q8K4Q0 1-1335)	binds
Rictor (endogenous, iMEFs) (from UniProt Q6QI06 1-1708)	binds
